# Literature values, collected in US20200061018A1, “METHODS AND COMPOSITIONS FOR TREATING PARKINSON'S DISEASE” (Cove Bio LLC, priority 2016, published 2020).
# Conditions: crystalline; cited from earlier work
compound,measurement,value
C[C@@H]1[C@H](O)[C@@H](C)/C=C/C=C/C=C/C=C/C=C/C=C/C=C/[C@H](O[C@@H]2O[C@H](C)[C@@H](O)[C@H](N)[C@@H]2O)C[C@@H]2O[C@](O)(C[C@@H](O)C[C@@H](O)[C@H](O)CC[C@@H](O)C[C@@H](O)CC(=O)O[C@H]1C)C[C@H](O)[C@H]2C(=O)O [amphotericin B],solubility in water,insoluble
